Test results taken from PubChem BioAssay AID2685 (National Center for Advancing Translational Sciences (NCATS), 2010).
About 2,100 (0.66%) of roughly 320,000 compounds were called active. This list was built around the results that the source calls inconclusive (neither active nor inactive); the mix of calls is not that of the screen. The call rests on the fitted dose curve; in most records, active means well fitted inhibition curve with a large enough effect in the signal ratio, with a control signal flat (not every such curve was filed as active); inconclusive means small, poorly fitted or top-dose-only effect, or effect the other way, or a change in a side signal; inactive means flat fitted curve, though single readings scatter; the % refers to the signal ratio. Where the call is inconclusive, the potency comes from a doubtful curve fit.

Assay: qHTS Assay for Lipid Storage Modulators in Drosophila S3 Cells
Details: BODIPY lipid droplet fluorescence, 18-24 h, cells fed with added oleic acid; lipid storage change, negative = inhibition: at 46.1 µM (top of the series) unless noted
Outline: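 Laser-scanning cytometry quantifies lipid droplet accumulation (500–530 nm total intensity; droplet/cell object ratio) in oleic acid-fed (400 uM added) Drosophila S3 cells treated with a concentration series. 20 uM Triacsin C defined 100% inhibition.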
On the % scale 0 is the no-effect control and ±100 the full control effect; potency means the concentration at half of the fitted maximal effect.

**Q.** Which lipid storage change, negative = inhibition does the source give for `Cc1noc(C)c1C(=O)OCC(=O)Nc1cc(Cl)ccc1Oc1ccccc1` here?
**A.** inconclusive: 457%

**Q.** For `C=C(C)CN(CC)C(=O)CSc1ccc(S(=O)(=O)N2CCN(C)CC2)cn1`, which lipid storage change, negative = inhibition is on record?
**A.** inconclusive: 35.5%

**Q.** Which lipid storage change, negative = inhibition does the source give for `O=C(NNC(=O)c1ccccc1-n1cccc1)c1ccc(Cl)c(Cl)c1` here?
**A.** inconclusive: 14%

**Q.** With `CC[C@H](C)C(C(=O)N1CCN(C(=O)OC(C)(C)C)CC1)n1cc(C(CO)NC(=O)OC(C)(C)C)nn1` (some centres undefined) as the molecule, how does the lipid storage change, negative = inhibition read?
**A.** inconclusive: -13%

**Q.** For `NC1=NC(=O)C(Cc2ccc(Br)cc2)S1` (centres undefined), which Potency is on record?
**A.** inconclusive: 29.1 µM [activator, single point]

**Q.** With `O=c1cc(-c2ccccc2)nc(SCc2ccc(Cl)cc2)[nH]1` as the molecule, how does the lipid storage change, negative = inhibition read?
**A.** inconclusive: 16.1%

**Q.** Which Potency does the source give for `Cc1cc(-c2ccccc2)nc(N(C)NC(=O)c2ccc(Cl)cc2)c1S(C)(=O)=O` here?
**A.** inconclusive: 7.31 µM [activator, single point]

**Q.** Which lipid storage change, negative = inhibition does the source give for `C#CCn1cc(/C=N/Nc2nc3ccccc3[nH]2)c2ccccc21` here?
**A.** inconclusive: -89.3%

**Q.** Which lipid storage change, negative = inhibition does the source give for `COc1ccc(CNC(=O)COC(=O)c2ccc3c(c2)OCCO3)cc1` here?
**A.** inconclusive: -20.8%

**Q.** With `O=C(Nc1nccs1)c1cccc2ccccc12` as the molecule, how does the Potency read?
**A.** inconclusive: 6.51 µM [falling, partial curve, poor fit]

**Q.** With `O=C(Nc1cccc(Cl)c1N1CCCC1)c1cc2ccccc2o1` as the molecule, how does the Potency read?
**A.** inconclusive: 29.1 µM [activator, single point]

**Q.** With `CCOc1cc(N2CCOCC2)c(OCC)cc1NC(=O)c1cc(S(=O)(=O)N2CCOCC2)ccc1Cl` as the molecule, how does the lipid storage change, negative = inhibition read?
**A.** inconclusive

**Q.** For `COCCCNc1nc2c(c(=O)n(C)c(=O)n2C)n1Cc1cccc(OC)c1`, which lipid storage change, negative = inhibition is on record?
**A.** inconclusive: -82%

**Q.** For `Cc1ccc(S(=O)(=O)N2CCC(N3CCC(C)CC3)CC2)cc1`, which lipid storage change, negative = inhibition is on record?
**A.** inconclusive: 17.8%

**Q.** Which Potency does the source give for `CC(=O)OC(C)=O` here?
**A.** inconclusive: 1.03 µM [activator, single point]

**Q.** With `Cc1ccc(S(=O)(=O)N(C)C)cc1NC(=S)Nc1ccc2cn[nH]c2c1` as the molecule, how does the Potency read?
**A.** inconclusive: 0.517 µM [activator, single point]

**Q.** For `CC(C)CCNC(=O)NC(=O)COC(=O)/C=C/c1cc(Br)ccc1F`, which Potency is on record?
**A.** inconclusive: 6.51 µM [cytotoxic, single point]

**Q.** With `O=C(NCCCN1CCOCC1)c1nn2c(C(F)(F)F)cc(-c3ccco3)nc2c1Cl` as the molecule, how does the lipid storage change, negative = inhibition read?
**A.** inconclusive: 71.1%

**Q.** Which Potency does the source give for `CCOc1ccc2c(c1)C(C)=CC(C)(C)N2S(=O)(=O)c1ccc(F)cc1` here?
**A.** inconclusive: 29.1 µM [falling, single point]

**Q.** With `CCC(CC)C(=O)NC12CC3CC(CC(C3)C1)C2` as the molecule, how does the Potency read?
**A.** inconclusive: 0.0103 µM [falling, full curve, poor fit]

**Q.** Which lipid storage change, negative = inhibition does the source give for `O=C(CCCN1C(=O)/C(=C/c2cccs2)SC1=S)Nc1cccnc1` here?
**A.** inconclusive: 8.94%

**Q.** With `O=C(Cc1ccc(-n2c(=O)[nH]c3ccccc3c2=O)cc1)N1CCN(c2cccc(Cl)c2)CC1` as the molecule, how does the lipid storage change, negative = inhibition read?
**A.** inconclusive: 22.6%

**Q.** With `CCOc1ccccc1Oc1cn[nH]c1-c1ccc(OCC(=O)NN)cc1O` as the molecule, how does the lipid storage change, negative = inhibition read?
**A.** inconclusive: 10.7%

**Q.** Which Potency does the source give for `O=C(CN1CCC(N2CCCCC2)CC1)N1CCCc2ccccc21` here?
**A.** inconclusive: 0.13 µM [falling, full curve, poor fit]

**Q.** Which lipid storage change, negative = inhibition does the source give for `CCCCc1c(O)nc(SCC(=O)O)[nH]c1=O` here?
**A.** inconclusive: 19.6%

**Q.** With `Cc1nnc(NC(=O)c2ccc(S(=O)(=O)N(C)c3ccccc3)cc2)s1` as the molecule, how does the Potency read?
**A.** inconclusive: 29.1 µM [activator, single point]

**Q.** Which lipid storage change, negative = inhibition does the source give for `CCOC(=O)c1cc(NC(=O)COc2ccc([N+](=O)[O-])cc2)cc(C(=O)OCC)c1` here?
**A.** inconclusive: 11.1%

**Q.** Which lipid storage change, negative = inhibition does the source give for `CCN(C=NC1=NN(c2cccc(C(F)(F)F)c2)CC1)CC` here?
**A.** inconclusive: 16.2%

**Q.** For `CCc1noc(C)c1C(=O)OCC(=O)c1ccc(OC)c(OC)c1`, which Potency is on record?
**A.** inconclusive: 4.61 µM [falling, full curve, poor fit]

**Q.** For `Fc1ccc2[nH]c3c(Cl)ncnc3c2c1`, which lipid storage change, negative = inhibition is on record?
**A.** inconclusive: 21.6%

**Q.** Which Potency does the source give for `Cc1c(-c2ccccc2)c(=O)oc2ccc(O)cc12` here?
**A.** inconclusive: 0.366 µM [falling, partial curve, poor fit]

**Q.** Which lipid storage change, negative = inhibition does the source give for `COC(=O)c1nn(-c2ccccc2)c(-c2ccccc2)c1C(=O)c1ccccc1` here?
**A.** inconclusive: 15.2%

**Q.** For `COc1ccc2oc(C(F)(F)C(F)(F)F)cc(=O)c2c1`, which lipid storage change, negative = inhibition is on record?
**A.** inconclusive: -18.3%

**Q.** Which Potency does the source give for `Cc1ccc(C(=O)Nc2nc(-c3ccccn3)cs2)s1` here?
**A.** active: 2.06 µM

**Q.** With `COC(=O)C(CC(C)C)NC(=O)/C=C/c1ccccc1Cl` (centres undefined) as the molecule, how does the lipid storage change, negative = inhibition read?
**A.** inconclusive: 22%

**Q.** Which lipid storage change, negative = inhibition does the source give for `O=C(CSc1cccc[n+]1[O-])CSc1cccc[n+]1[O-]` here?
**A.** inconclusive: -25.5%

**Q.** For `Cc1cccc(Cn2ncc(Cl)c(Cl)c2=O)c1`, which lipid storage change, negative = inhibition is on record?
**A.** inconclusive: -69.4%

**Q.** Which lipid storage change, negative = inhibition does the source give for `Cc1ccc(NC(=O)c2ccco2)c(NC(=O)COc2ccccc2)c1` here?
**A.** inconclusive: -8.94%

**Q.** With `Cc1cc(C)c(-c2csc(NC(=O)/C=C/c3cccs3)n2)c(C)c1` as the molecule, how does the Potency read?
**A.** active: 16.4 µM

**Q.** Which lipid storage change, negative = inhibition does the source give for `CC(C)(C)C1CC=C2C(C#N)=C(N)C(C#N)(C#N)C(c3cccs3)C2C1` (centres undefined) here?
**A.** inconclusive: -2.44%

**Q.** With `Cn1c(Cn2nnc3ccccc32)nnc1SCC(=O)N1c2ccccc2CCc2ccccc21` as the molecule, how does the Potency read?
**A.** inconclusive: 2.91 µM [activator, single point]

**Q.** Which Potency does the source give for `N#Cc1cccc(NC(=O)CCn2ccnc2)c1` here?
**A.** inconclusive: 18.4 µM [rising, single point]

**Q.** For `O=c1[nH]c2ccc(S(=O)(=O)Nc3ccc(-c4nnc5n4CCCCC5)cc3)cc2o1`, which lipid storage change, negative = inhibition is on record?
**A.** inconclusive: -125%

**Q.** With `C=CCNC(=O)CN1CCC(O)(c2ccc(F)cc2)CC1` as the molecule, how does the lipid storage change, negative = inhibition read?
**A.** inconclusive: 16.6%

**Q.** For `Cc1ccc2ncnc(Nc3cccc([N+](=O)[O-])c3)c2c1`, which Potency is on record?
**A.** active: 8.2 µM

**Q.** With `CCOC(=O)c1cnn(-c2ccccc2)c1-n1cccc1C(=O)C(=O)Nc1ccccc1` as the molecule, how does the Potency read?
**A.** inconclusive: 0.206 µM [falling, full curve]

**Q.** For `Cc1ccc(NC(=O)CCC(=O)NNS(=O)(=O)c2ccccc2)c(C)c1`, which lipid storage change, negative = inhibition is on record?
**A.** inconclusive: -25.3%

**Q.** With `Cc1ccc(S(=O)(=O)N2CCC(=O)N(C(COCc3cccc(C(F)(F)F)c3)Cc3ccccc3)CC2)cc1` (centres undefined) as the molecule, how does the lipid storage change, negative = inhibition read?
**A.** inconclusive: 36.1%

**Q.** With `COc1ccc(N2CCN(c3nc(Cl)nc(Nc4ccc(F)cc4)n3)CC2)cc1` as the molecule, how does the lipid storage change, negative = inhibition read?
**A.** inconclusive: 18%
